Measured values as given in publication PMC6375917 (2019).
Residue numbers refer to the chain shown, from its start. Results are given in words; binding and its absence hold for the method and conditions named. In cells and extracts the contact can be indirect. Some entries that bind do so weakly or less than the wild type. Tags and fused reporters may be left off the sequences shown.

Assays:
Test in all cases: pull-down; mitochondria from cells expressing His-tagged Tim50 versions solubilized with 1% digitonin, incubated with Ni-NTA agarose beads at 4 °C, eluted with Laemmli buffer with 300 mM imidazole; immunoblot with Tim50, Tim17 and Tim23 antibodies
[1] = molecular target: T1, His-tagged Tim50 A221D/D337V (yeast) (UniProt Q02776)
T1 sequence: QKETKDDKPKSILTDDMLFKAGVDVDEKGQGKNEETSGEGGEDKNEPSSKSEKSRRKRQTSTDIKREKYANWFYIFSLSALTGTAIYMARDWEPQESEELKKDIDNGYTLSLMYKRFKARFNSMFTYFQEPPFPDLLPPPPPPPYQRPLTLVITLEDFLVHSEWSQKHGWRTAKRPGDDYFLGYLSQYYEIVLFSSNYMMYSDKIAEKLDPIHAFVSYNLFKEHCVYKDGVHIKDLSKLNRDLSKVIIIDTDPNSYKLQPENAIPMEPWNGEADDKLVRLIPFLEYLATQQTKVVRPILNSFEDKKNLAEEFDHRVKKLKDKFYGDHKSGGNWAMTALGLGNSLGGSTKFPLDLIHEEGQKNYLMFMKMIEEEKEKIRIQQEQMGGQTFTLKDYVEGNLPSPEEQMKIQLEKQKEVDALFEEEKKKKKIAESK

[2] = molecular target: T2, His-tagged Tim50 D278V/R339S (yeast) (UniProt Q02776)
T2 sequence: T1 sequence with D178A, D235V, V294D, R296S

[3] = molecular target: T3, His-tagged Tim50 L194H (yeast) (UniProt Q02776)
T3 sequence: T1 sequence with L151H, D178A, V294D

[4] = molecular target: T4, His-tagged Tim50 mutant #2 (L202M,R218G,S298R,L362S,S386F) (yeast) (UniProt Q02776)
T4 sequence: T1 sequence with L159M, R175G, D178A, S255R, V294D, L319S, S343F

[5] = molecular target: T5, His-tagged but otherwise wild type Tim50 (yeast) (UniProt Q02776)
T5 sequence: T1 sequence with D178A, V294D

Measured: binding

B1: Tim23 (protein, UniProt P32897 1-222)
chain: MSWLFGDKTPTDDANAAVGGQDTTKPKELSLKQSLGFEPNINNIISGPGGMHVDTARLHPLAGLDKGVEYLDLEEEQLSSLEGSQGLIPSRGWTDDLCYGTGAVYLLGLGIGGFSGMMQGLQNIPPNSPGKLQLNTVLNHITKRGPFLGNNAGILALSYNIINSTIDALRGKHDTAGSIGAGALTGALFKSSKGLKPMGYSSAMVAAACAVWCSVKKRLLEK
binds: all assays above

B2: Tim17 (protein, UniProt P39515 1-158)
chain: MSADHSRDPCPIVILNDFGGAFAMGAIGGVVWHGIKGFRNSPLGERGSGAMSAIKARAPVLGGNFGVWGGLFSTFDCAVKAVRKREDPWNAIIAGFFTGGALAVRGGWRHTRNSSITCACLLGVIEGVGLMFQRYAAWQAKPMAPPLPEAPSSQPLQA
binds: all assays above
